PubChem BioAssay AID1259308, NCATS – 2017

- Purpose: 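Genes whose loss raises luciferase production in HEK293 cells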 (primary screen)
- Cells: human HEK293 embryonic kidney cells stably expressing firefly luciferase (HEK-CMV-Luc2-Hygro)
- Reagent: single siRNA against human genes, 0.8 pmol siRNA per well
- Time to read-out: 72 h
- Measured: 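Reporter luminescence and viable-cell signal on separate replicate plates, given as percent of non-targeting control and median/MAD z-scores, plus per-cell luciferase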
- Reading the numbers: total luciferase, z-score and total luciferase, % of control: higher = more reporter protein produced; luciferase per cell, z-score: higher = more reporter output per viable cell; viable cells, % of control: higher = more viable cells
- Call rule: 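An siRNA counts as active if its total luciferase robust z-score exceeds 3; genes with two or more such siRNAs out of three were retested with fresh siRNAs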
- Calls: active = raised luciferase; inactive = no rise
The deposit covers about 59,000 reagents; this is a random part of them. Of all reagents, about 1,510 (2.6%) were called active. 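Calls use total luciferase alone and ignore viability, so some active siRNAs may act by altering cell number.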 A number with no mark means an inactive call. The numbers tell different reagents against one gene apart.

gene symbol,reagent no.,"total luciferase, z-score","total luciferase, % of control","luciferase per cell, z-score","viable cells, % of control"
TAS2R60 (taste 2 receptor member 60),1,0.856,98.9,1.15,81.6
TAS2R60 (taste 2 receptor member 60),2,-1.63,49.5,0.0995,53.9
TAS2R60 (taste 2 receptor member 60),3,-0.652,68.9,-0.115,79.4
ZNF473CR (ZNF473 cis regulating lncRNA),1,1.01,102,0.807,92.1
ZNF473CR (ZNF473 cis regulating lncRNA),2,-0.171,78.5,0.18,83.6
ZNF473CR (ZNF473 cis regulating lncRNA),3,0.114,84.2,0.0275,93.4
PHRF1 (PHD and ring finger domains 1),1,0.58,93.4,0.823,84.1
PHRF1 (PHD and ring finger domains 1),2,0.573,93.3,0.982,80.5
PHRF1 (PHD and ring finger domains 1),3,-0.212,77.7,-0.469,98.2
COX20 (cytochrome c oxidase assembly factor COX20),1,-0.774,66.5,0.409,66.7
COX20 (cytochrome c oxidase assembly factor COX20),2,-0.287,76.2,-0.647,101
COX20 (cytochrome c oxidase assembly factor COX20),3,-1.3,56,-1.58,94.9
AGRN (agrin),1,-0.402,73.9,0.154,79.3
AGRN (agrin),2,-1.98,42.5,-1.17,64.7
AGRN (agrin),3,-1.23,57.4,-0.182,67.3
PF4 (platelet factor 4),1,0.325,88.3,-0.352,108
PF4 (platelet factor 4),2,1.86,119,1.23,96.1
PF4 (platelet factor 4),3,0.688,95.6,0.196,101
YWHAH,1,0.829,98.4,0.638,92.9
YWHAH,2,-0.109,79.7,0.085,87.1
YWHAH,3,0.555,92.9,0.875,82.5
RORA (RAR related orphan receptor A),1,1.99,121,1.15,100
RORA (RAR related orphan receptor A),2,-0.943,63.1,-1.72,111
RORA (RAR related orphan receptor A),3,-0.454,72.9,-0.277,87.6
TMEM229A (transmembrane protein 229A),1,0.647,94.8,0.632,89.7
TMEM229A (transmembrane protein 229A),2,-0.0924,80,0.444,79.6
TMEM229A (transmembrane protein 229A),3,0.478,91.4,0.396,92
SSX3 (SSX family member 3),1,1.64,114,1.77,80.2
SSX3 (SSX family member 3),2,-0.561,70.7,-0.791,97.3
SSX3 (SSX family member 3),3,-1.24,57.2,-1.15,86.7
ZFTRAF1 (zinc finger TRAF-type and ring finger containing 1),1,0.0239,82.4,0.383,83.2
ZFTRAF1 (zinc finger TRAF-type and ring finger containing 1),2,0.7,95.8,1.69,68.5
ZFTRAF1 (zinc finger TRAF-type and ring finger containing 1),3,1.87,119,1.92,80.3
ATG7 (autophagy related 7),1,0.935,100,1.31,79.5
ATG7 (autophagy related 7),2,-0.601,69.9,0.462,69.2
ATG7 (autophagy related 7),3,0.366,89.2,0.385,90
RNF4 (ring finger protein 4),1,3.44 (active),150,1.91,102
RNF4 (ring finger protein 4),2,-0.148,78.9,-0.534,102
RNF4 (ring finger protein 4),3,0.876,99.3,1.26,79.6
POLR3E (RNA polymerase III subunit E),1,-0.521,71.5,-0.746,97.3
POLR3E (RNA polymerase III subunit E),2,0.439,90.6,0.681,84.6
POLR3E (RNA polymerase III subunit E),3,-0.929,63.4,-1.23,98.1
PSMA6 (proteasome 20S subunit alpha 6),1,-0.225,77.4,1.06,65.5
PSMA6 (proteasome 20S subunit alpha 6),2,1.27,107,1.83,73.9
PSMA6 (proteasome 20S subunit alpha 6),3,0.518,92.2,1.82,63.7
TAF3 (TATA-box binding protein associated factor 3),1,1.33,108,0.602,103
TAF3 (TATA-box binding protein associated factor 3),2,3.46 (active),151,2.17,95
TAF3 (TATA-box binding protein associated factor 3),3,0.576,93.3,2.6,52.5
NPR3 (natriuretic peptide receptor 3),1,-0.265,76.6,-0.694,103
NPR3 (natriuretic peptide receptor 3),2,1.17,105,0.875,93.3
NPR3 (natriuretic peptide receptor 3),3,-0.231,77.3,0.189,82.2
NPR3 (natriuretic peptide receptor 3),4,-0.358,74.8,-1.11,112
NPR3 (natriuretic peptide receptor 3),5,0.846,98.7,0.52,96.2
NPR3 (natriuretic peptide receptor 3),6,-0.554,70.9,-0.745,96.3
CST3 (cystatin C),1,0.228,86.4,-0.123,99.8
CST3 (cystatin C),2,0.489,91.6,1.39,71
CST3 (cystatin C),3,0.22,86.3,0.689,80.4

Limited to “total luciferase, z-score” (5 entries from above):
ZFTRAF1 (zinc finger TRAF-type and ring finger containing 1) #3: 1.87
ATG7 (autophagy related 7) #1: 0.935
ATG7 (autophagy related 7) #2: -0.601
ATG7 (autophagy related 7) #3: 0.366
RNF4 (ring finger protein 4) #1: 3.44 (active)
